Experimental findings from article PMC10415138 are described below.

Results are given in words; binding and its absence hold for the method and conditions named. In cells and extracts the contact can be indirect. Here binding means that the protein was enriched with, or labelled near, the bait; the list need not be complete. Where a sequence is shown, tags or fusion partners need not be part of it.

In the assay the target is T1, TRMT112-WT-BirA*-HA (human) (UniProt Q9UI30).
T1 sequence: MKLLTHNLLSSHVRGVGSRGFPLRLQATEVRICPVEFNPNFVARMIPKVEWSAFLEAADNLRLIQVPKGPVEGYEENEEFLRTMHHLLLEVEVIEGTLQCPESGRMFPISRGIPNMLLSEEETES
The assay can be described thus: proximity labelling; BioID-MS in HEK293T cells: TRMT112-WT-BirA*-HA against the controls TRMT112-T5R-BirA*-HA, eGFP-BirA*-HA and BirA*-HA; 50 uM biotin for 24 h; streptavidin resin; nanoLC-MS/MS; five replicates.

B1: THUMPD3 (enzyme, UniProt Q9BV44 1-507)
chain: MCDIEEATNQLLDVNLHENQKSVQVTESDLGSESELLVTIGATVPTGFEQTAADEVREKLGSSCKISRDRGKIYFVISVESLAQVHCLRSVDNLFVVVQEFQDYQFKQTKEEVLKDFEDLAGKLPWSNPLKVWKINASFKKKKAKRKKINQNSSKEKINNGQEVKIDQRNVKKEFTSHALDSHILDYYENPAIKEDVSTLIGDDLASCKDETDESSKEETEPQVLKFRVTCNRAGEKHCFTSNEAARDFGGAVQDYFKWKADMTNFDVEVLLNIHDNEVIVGIALTEESLHRRNITHFGPTTLRSTLAYGMLRLCDPLPYDIIVDPMCGTGAIPIEGATEWSDCFHIAGDNNPLAVNRAANNIASLLTKSQIKEGKPSWGLPIDAVQWDICNLPLRTGSVDIIVTDLPFGKRMGSKKRNWNLYPACLREMSRVCTPTTGRAVLLTQDTKCFTKALSGMRHVWRKVDTVWVNVGGLRAAVYVLIRTPQAFVHPSEQDGERGTLWQCKE
As to B1, the binding entry was “binds”.

B2: TRMT11 (enzyme, UniProt Q7Z4G4 1-463)
chain: MALSCTLNRYLLLMAQEHLEFRLPEIKSLLLLFGGQFASSQETYGKSPFWILSIPSEDIARNLMKRTVCAKSIFELWGHGQSPEELYSSLKNYPVEKMVPFLHSDSTYKIKIHTFNKTLTQEEKIKRIDALEFLPFEGKVNLKKPQHVFSVLEDYGLDPNCIPENPHNIYFGRWIADGQRELIESYSVKKRHFIGNTSMDAGLSFIMANHGKVKENDIVFDPFVGTGGLLIACAHFGAYVYGTDIDYNTVHGLGKATRKNQKWRGPDENIRANLRQYGLEKYYLDVLVSDASKPSWRKGTYFDAIITDPPYGIRESTRRTGSQKEIPKGIEKWEKCPESHVPVSLSYHLSDMFLDLLNFAAETLVLGGRLVYWLPVYTPEYTEEMVPWHPCLELVSNCEQKLSSHTSRRLITMEKVKKFENRDQYSHLLSDHFLPYQGHNSFREKYFSGVTKRIAKEEKSTQE
With B2, the binding result is “binds”.
